# The campaign covered roughly 410,000 compounds. About 18,000 (4.4%) were called active. The inconclusive results got no clear call from the source; some entries with a clear call stand among them for comparison. Cut-off read from the data, not from the text of the source: active = activity change below about -60%; inconclusive = no clear call, values can overlap the other calls; inactive = above about -39%.
# Experiment: qHTS Assay for inhibitors of the human cytomegalovirus (HCMV)
# Details: HFF cells, HCMV-luciferase reporter, 72 h; at 57.5 µM; hits give low values
# Method in brief: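 After 16 h attachment at 37C, HFF cells received test compound and HCMV-luciferase (1 PFU/cell); reporter luminescence read 72 h later, data normalized against buffer-only and known inhibitor Salinomycin.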
# % is set by controls: 0 for no effect and ±100 for the full control effect.
row,Compound,"activity change, negative = inhibition"
1,CC(=O)c1cccc(NC(=O)c2cc(-c3ccc4c(c3)OCCO4)on2)c1,inactive: 103%
2,CCOCCn1c(CN2CCN(c3ccc(F)cc3)CC2)nc2c1c(=O)n(C)c(=O)n2C,inconclusive: -54%
3,CCC(C)c1ccc(S(=O)(=O)N2CCN(C(C)C(=O)NC3CCCC3)CC2)cc1 (centres undefined),inconclusive: -52.8%
4,CCOc1cc(NC(=S)NCC2CCCO2)c(OCC)cc1NC(=O)c1ccc(C)cc1 (centres undefined),inactive: 51.4%
5,Cc1ccc(S(=O)(=O)N2CCC(C(=O)NCCN3CCCCCC3)CC2)cc1,inactive: 28.2%
6,CCCCN(CCCC)Cc1ccc(C(=O)NNC(=O)Nc2ccccc2)o1,inconclusive: -46.6%
7,CCOc1nc(N(C)C)nc(-n2nnc(C(C)=O)c2C)n1,inconclusive: -58.6%
8,O=S(=O)(/N=C(/Nc1cccc2ccccc12)c1ccccc1)c1ccc(Br)cc1,inactive: 44.7%
9,NC(=O)C1(c2ccccc2)OC1c1ccccc1 (centres undefined),inconclusive: -54.5%
10,CCOc1ccc(NC(=O)C(=O)NCCCn2ccnc2)cc1,inactive: -1.34%
11,CCCCCCNc1c([N+](=O)[O-])c(=O)sc2ccccc12,inconclusive: -40.6%
12,COc1ccc2c(c1)c(C(C)=O)c(C)n2C,inconclusive: -55.4%
13,Cc1ccc(C(=O)OCC(=O)c2c(N)n(C)c(=O)n(C)c2=O)cc1S(=O)(=O)N1CCOCC1,inconclusive: -51.3%
14,CCN(CC)S(=O)(=O)c1ccc(C2=NOC3(C2)N(C)c2ccccc2C3(C)C)cc1 (centres undefined),active: -75.9%
15,O=C(CSc1ccccn1)Nc1cccc(NC(=O)CSc2ccccn2)n1,inconclusive: -41.8%
16,CN(c1cccc(NC(=O)CSc2ccc(Cl)cc2)c1)S(C)(=O)=O,inconclusive: -54.4%
17,COc1ccc(CCNC(=O)Nc2nc(C(N)C3CCCCC3)cs2)cc1OC (centres undefined),inactive: 17.8%
18,CCOC(=O)c1c(NC(C)=O)sc2c(OCC(O)CN(CC)CC)c(Br)ccc12 (centres undefined),active: -101%
19,CN(C(=O)c1cccc(S(=O)(=O)N2CCOCC2)c1)c1c(N)n(Cc2ccccc2)c(=O)[nH]c1=O,inconclusive: -43.3%
20,CCc1ccc2c(c1)C1(C(=O)N2)N2CCCC2C(C(=O)c2ccc3ccccc3c2)C12C(=O)Nc1ccccc12 (centres undefined),inconclusive: -53.6%
21,CC1N=C(SCC(=O)c2ccc(F)cc2)N2C(C)N=C(SCC(=O)c3ccc(F)cc3)N12 (centres undefined),inconclusive: -50.8%

row,Compound,"activity change, negative = inhibition"
1,COc1ccc(CN(C)C(=O)COc2cccc(-n3cnnn3)c2)cc1OC,inactive: 132%
2,CC(C)(C)c1nn(-c2ccccc2)c2[nH]c(=O)c(CNc3ccc4c(c3)OCCO4)cc12,active: -61.6%
3,N#Cc1nc(-c2ccc(F)cc2)oc1NCc1ccco1,inactive: -25.2%
4,N=c1oc2cc(O)ccc2cc1C(=O)Nc1ccc(Br)cc1,active: -90.5%
5,CCCN(C(=O)Cn1nc(Cc2ccncc2)c2ccccc2c1=O)c1ccccc1C,active: -61.8%
6,COc1ccc(Nc2cc(C(=O)NCCCN(C)C3CCCCC3)c3ccccc3n2)cc1,active: -107%
7,COCC(C)n1c(COc2ccccc2F)nnc1SCc1c(C)noc1C (centres undefined),inactive: 44.6%
8,Cc1nc(S(=O)(=O)Cc2ccc(Cl)cc2)nc2c1CCC2,inconclusive: -50.5%
9,CN(CC(=O)Nc1cccc(F)c1)C(=O)COc1cccc2c1OC(C)(C)C2,inactive: 16.3%
10,O=C(OCc1nnc(-c2ccccc2)o1)C1CC(=O)N(Cc2ccco2)C1 (centres undefined),inconclusive: -44.3%
11,CN(C)S(=O)(=O)c1cccc(NC(=O)C(c2ccccc2)c2ccccc2)c1,inactive: -16.7%
12,Cc1cc(=O)n2c(nc3ccccc32)s1,inconclusive: -49%
13,COc1ccccc1/C=C(\NC(=O)c1ccc(OC)c(OC)c1)C(=O)Nc1cccc([N+](=O)[O-])c1,active: -61.3%
14,CC(=O)c1cn(CC(=O)Nc2c(C)cccc2C)c2ccccc12,active: -74.6%
15,CCOC(=O)c1sc(NC(=O)Nc2ccccc2F)nc1C,inconclusive: -55%
16,COc1cccc(-c2ccc3ncnc(NCc4ccc5c(c4)OCO5)c3c2)c1,inactive: -32.5%
17,Cc1ccccc1CN1C(=O)C(O)(CC(=O)c2cccc(Br)c2)c2ccccc21 (centres undefined),inconclusive: -51.8%
18,O=C(Cc1cccc2ccccc12)Nc1ccc(Br)cc1C(=O)O,inconclusive: -50.4%
19,Cc1ccc(CNC(=O)C(=O)NCCCn2ccnc2)cc1,active: -67.2%
20,Cc1oc2ncnc(N3CCCCC3)c2c1C(=O)Nc1cccc(F)c1,inconclusive: -40.9%
21,CCN(C(=O)COC(=O)/C(=C/c1ccccc1)n1nnnc1C)C1CCCCC1,inconclusive: -58.7%

row,Compound,"activity change, negative = inhibition"
1,CCN(CC(=O)Nc1ccc2c(c1)OCCO2)C(=O)/C=C/c1cccc(C(F)(F)F)c1,inconclusive: 0%
2,C=CCn1c(SCC(=O)c2c(C)[nH]c3ccccc23)nnc1-c1ccncc1,inconclusive: -44.1%
3,CCOc1ccc(OCC)c(NC(=O)c2c(C)nn(-c3ccccc3)c2-n2cccc2)c1,inactive: -28.6%
4,Cc1cc(C)n(-c2nc(-c3cccc(Cl)c3)cs2)n1,inactive: 152%
5,O=C(Nc1ncc([N+](=O)[O-])s1)C1COc2ccccc2O1 (centres undefined),inconclusive: -49.1%
6,COc1ccc(Nc2cc(C)nc3ccc(OC)cc23)cc1,inconclusive: -52.2%
7,O=C(Nc1ccc(F)cc1)c1ccccc1NC(=O)C1CCCCC1C(=O)O (centres undefined),inconclusive: -42.9%
8,CN(C)CC(CCCCC(CN(C)C)C(=O)c1ccccc1)C(=O)c1ccccc1 (centres undefined),inconclusive: -49.6%
9,CN(c1ccc(C(=O)N2CCOCC2)cc1)S(C)(=O)=O,inconclusive: -44.9%
10,Cc1cc(C)nc(NS(=O)(=O)c2ccc(NC(=O)c3ccc4c(c3)OCCO4)cc2)n1,inactive: -11.9%
11,CCC(C)(C)C1CCC(NC(=O)c2ccc(S(=O)(=O)N3CCOCC3)cc2)CC1 (centres undefined),inconclusive: -43.1%
12,COC(=O)C1C(O)CC2CCC1N2C (centres undefined),inconclusive: -40.8%
13,Cc1cc(C)c(NC(=O)c2cc3c(nc4sccn43)s2)c(C)c1,inconclusive: -54.7%
14,Cc1cc(Nc2cccc(C(F)(F)F)c2)nc2ccc(NC(=O)c3cncc(Br)c3)cc12,inconclusive: -45%
15,Nc1ccccc1Nc1cccc(C(F)(F)F)c1,inconclusive: -55.5%
16,CCOc1ccc(N2C(=O)CC(N3CCN(c4ccc(Cl)cc4)CC3)C2=O)cc1 (centres undefined),inactive: 4.92%
17,CCOc1ccccc1N(CC)C(=O)c1cc2c(=O)n(CC)c3ccccc3c2s1,active: -70.2%
18,CC[C@]1(C(=O)OC)[C@H]2C(=O)N(C)C(=O)[C@H]2[C@H]2CN=C(SCc3ccc(C)cc3)N21,inactive: -9.21%
19,COC(=O)C1=C(C(=O)OC)[C@@H]2Nc3ccccc3[C@@]23C[C@@H](C(=O)OC)N(C(=O)NC2CCCCC2)C3=N1,inactive: -27%
20,CCNC(=O)C1(C)CCN(C(=O)c2cc(F)ccc2C)C1 (centres undefined),inactive: 2.11%
21,Cc1nn(-c2ccccc2)c(C)c1NC(=O)COc1ccc2ccccc2c1,inconclusive: -43.9%

row,Compound,"activity change, negative = inhibition"
1,N#C/C(=C\c1ccccc1F)c1nc2ccccc2c(=O)[nH]1,inactive: -22.3%
2,CCOC(=O)c1cc2c(=O)n3ccccc3nc2n(CC2CCCO2)c1=NC(=O)c1cc(C)cc(C)c1 (centres undefined),inconclusive: -53%
3,COc1ccc(CC(=O)Nc2sc3c(c2C(=O)Nc2ccc(C)cc2)CCCCC3)cc1,inconclusive: -41.7%
4,CCCc1nnc(NC(=O)CCC(=O)N2CCN(CCOc3ccc(C)cc3)CC2)s1,inconclusive: -44.4%
5,CCc1cccc(C)c1Nc1c(-c2cccc(O)c2)nc2sccn12,inconclusive: -46.1%
6,O=C(Nc1ccccc1)C1CCN(C(=O)c2ccc([N+](=O)[O-])cc2)CC1,inactive: 3.97%
7,Cc1ccc(C)c(NC(=O)CCN2C(=O)[C@@H]3Cc4ccccc4CN3C2=O)c1,inconclusive: -58.5%
8,COc1ccc(CN2CCCC(C(=O)c3ccc4c(c3)OCO4)C2)c(F)c1 (centres undefined),inconclusive: 0%
9,Cc1c(OCC(=O)NCc2cccnc2)ccc2c3c(c(=O)oc12)CCC3,inconclusive: -45.8%
10,CC1(C)C(C=C(Cl)Cl)C1C(=O)Nc1ccc(S(=O)(=O)Nc2ncccn2)cc1 (centres undefined),inactive: -1.14%
11,Cc1noc(C)c1NC(=O)N(C)C[C@H]1Oc2ccc(NC(=O)NC(C)C)cc2C(=O)N([C@H](C)CO)C[C@H]1C,inconclusive: -45.5%
12,O=c1[nH]c(O)c(N=Nc2ccc(S(=O)(=O)N3CCOCC3)cc2)c(=O)[nH]1,inconclusive: -51.3%
13,Cc1ccc(NC(=S)NNC(=O)CSc2nnc(-c3ccc(Cl)cc3)n2C2CCCCC2)cc1,inconclusive: -41.3%
14,O=C(NCCCN1CCOCC1)c1cc(-c2ccc3c(c2)OCO3)nc2ccccc12,inconclusive: -54.8%
15,O=S(CC1CC1(Cl)Cl)CC1CC1(Cl)Cl (centres undefined),inconclusive: -45.8%
16,Cc1ccc(NC(=O)CCNS(=O)(=O)c2ccc(OC(F)(F)F)cc2)c(O)c1,inactive: -5.9%
17,CCc1ccc(CNC(=O)c2cnc3sc(N(CC)CC)nn3c2=O)cc1,inconclusive: -46.1%
18,Cc1ccc(CCNC(=O)c2ccc(CS(=O)(=O)c3ccccc3C)o2)cc1,inconclusive: -55%
19,[O-]/[N+](=C\c1cccc(Br)c1)c1ccccc1,inconclusive: -48.3%
20,CC(=O)c1cccc(NC(=O)c2ccc3c(Cl)c4c(nc3c2)CCCC4)c1,inconclusive: -43.4%
21,Cc1ccc(S(=O)(=O)N2CCN(C(=O)c3ccc(Br)o3)CC2)c(C)c1,inconclusive: -51.8%

# A different layout for some results above.
row	Compound	activity change, negative = inhibition
1	N#C/C(=C\c1ccccc1F)c1nc2ccccc2c(=O)[nH]1	inactive: -22.3%
2	CCOC(=O)c1cc2c(=O)n3ccccc3nc2n(CC2CCCO2)c1=NC(=O)c1cc(C)cc(C)c1 (centres undefined)	inconclusive: -53%
3	COc1ccc(CC(=O)Nc2sc3c(c2C(=O)Nc2ccc(C)cc2)CCCCC3)cc1	inconclusive: -41.7%
4	CCCc1nnc(NC(=O)CCC(=O)N2CCN(CCOc3ccc(C)cc3)CC2)s1	inconclusive: -44.4%
5	CCc1cccc(C)c1Nc1c(-c2cccc(O)c2)nc2sccn12	inconclusive: -46.1%
6	O=C(Nc1ccccc1)C1CCN(C(=O)c2ccc([N+](=O)[O-])cc2)CC1	inactive: 3.97%
7	Cc1ccc(C)c(NC(=O)CCN2C(=O)[C@@H]3Cc4ccccc4CN3C2=O)c1	inconclusive: -58.5%

# — PubChem BioAssay AID1259415 (National Center for Advancing Translational Sciences (NCATS), 2018)
